The campaign covered roughly 330,000 compounds. About 1,000 (0.3%) were called active. Inconclusive means that the source gave no clear call. Such entries were picked first, then a sample of the others. The call rests on the fitted dose curve; in most records, active means well fitted inhibition curve with a large enough effect; inconclusive means small, poorly fitted or top-dose-only effect; inactive means no such curve, though single readings can be large or run the other way; tested in mouse RAW 264.7 cells. Potencies beside an inconclusive call are fits to weak or partial responses and may not hold up.
test: qHTS for Inhibitors of Cell Surface uPA Generation; conditions: cell surface uPA generation assay; series mostly up to 38.3 µM; further: nearly all actives have a fitted effect of over 55% in size
Summary of the method: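 Murine RAW 264.7 cells are treated for 24 h with compound up to 38.3 uM final. Cell ATP, measured by ATP-Lite, remains high if blocking the uPA cascade prevents LF from reaching the cytoplasm.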
Potency means the concentration at half of the fitted maximal effect.

| SMILES | Potency |
| --- | --- |
| COc1ccc2c(c1)/C(=C/c1cnc[nH]1)C(=O)N2 | inconclusive: 4.47 µM [inhibitor, partial curve, poor fit] |
| COc1ccc2c(c1)[nH]c1c(C)nccc12 | inconclusive: 3.98 µM [inhibitor, partial curve, poor fit] |
| COc1cc2c(cc1O)CC[C@@H]1[C@@H]2CC[C@]2(C)[C@@H](O)CC[C@@H]12 | inconclusive: 1 µM [inhibitor, full curve, poor fit] |
| COC(=O)C1=C(C)NC(C)=C(C(=O)OC)C1c1ccccc1[N+](=O)[O-] | inconclusive: 1.26 µM [inhibitor, partial curve, poor fit] |
| Cc1cc(C(C)(C)CC(C)(C)C)ccc1OCCOCC[N+](C)(C)Cc1ccccc1 | inconclusive: 12.6 µM [inhibitor, single point] |
| O=C(NCc1ccco1)c1cccc2c1C(=O)c1ccc(/C=C/c3ccccc3)cc1S2(=O)=O | inconclusive: 11.2 µM [inhibitor, single point] |
| O=c1[nH]cc(F)c(=O)[nH]1 | inconclusive: 0.0141 µM [inhibitor, full curve, poor fit] |
| COc1ccc2c3c1OC1C(=O)CC[C@@]4(O)[C@@H](C2)N(C)CC[C@]314 (stereo not given in full) | active: 6.31 µM |
| C=C(C)C(Cc1c(OC)ccc(C(=O)/C=C/c2ccc(O)cc2)c1O)OO (stereo not given) | inconclusive: 10 µM [inhibitor, single point] |
| Cc1cnc(C(=O)Nc2ccc(OC(F)(F)F)cc2)cn1 | inconclusive: 3.16 µM [inhibitor, full curve, poor fit] |
| C=C1N2CCC(CC2)C1(O)c1ccc(C)c(C)c1 (stereo not given) | inactive |
| CCn1ccnc1CN1CCCC(C(=O)c2cc(C)c(OC)c(C)c2)C1 (stereo not given) | inactive |
| COc1ccc(/C=C/C(=O)c2ccc([N+](=O)[O-])o2)cc1 | inconclusive: 3.16 µM [inhibitor, single point] |
| ClCCOCOCCCl | inactive |
| COC(=O)C1=C(c2cccc(OCc3ccccc3)c2)C[C@@H]2CC[C@H]1N2C(=O)NCc1ccccc1OC | active: 14.1 µM |
| Cc1ccc(C(O)(c2ccc(C)c(C)c2)C2CN3CCC2CC3)cc1C (stereo not given) | inconclusive: 12.6 µM [inhibitor, single point] |
| CC(C)C[C@@H](CO)N(Cc1ccccc1)S(=O)(=O)N(Cc1ccccc1)[C@@H](CO)CC(C)C | inconclusive: 12.6 µM [inhibitor, partial curve, poor fit] |
| O=c1c(-c2ccc(O)cc2)coc2cc(O)cc(O)c12 | inconclusive: 11.2 µM [inhibitor, partial curve, poor fit] |
| S=C(NCCCN1CCOCC1)N1CCN(c2nc(-c3ccc(Cl)cc3)cs2)CC1 | inconclusive: 12.6 µM [inhibitor, single point] |
| O=c1c2ccccc2nc(/C=C/c2ccccc2F)n1-c1ccccc1O | inconclusive: 4.47 µM [inhibitor, partial curve] |

A few values from the results shown.
COc1cc2c(cc1O)CC[C@@H]1[C@@H]2CC[C@]2(C)[C@@H](O)CC[C@@H]12 | Potency: inconclusive: 1 µM [inhibitor, full curve, poor fit]
COC(=O)C1=C(c2cccc(OCc3ccccc3)c2)C[C@@H]2CC[C@H]1N2C(=O)NCc1ccccc1OC | Potency: active: 14.1 µM

(more compounds)

| SMILES | Potency |
| --- | --- |
| CCN(CC)C(=O)CC(c1ccc(N(C)C)cc1)c1c(OC)cc(OC)c2c(-c3ccccc3)cc(=O)oc12 (stereo not given) | inconclusive: 28.2 µM [inhibitor, single point] |
| COc1cccc(N=Nc2c(O)[nH]c(=S)[nH]c2=O)c1 | inconclusive: 7.94 µM [inhibitor, partial curve, poor fit] |
| Cc1oc(-c2ccccc2Cl)nc1CN1C(=O)CN=C(c2ccccc2)c2ccccc21 | inconclusive: 4.47 µM [inhibitor, partial curve, poor fit] |
| COC(=O)C1=C(c2ccc(F)cc2F)C[C@@H]2CC[C@H]1N2C(=O)N1CCC(O)(c2ccc(Cl)cc2)CC1 | inconclusive: 12.6 µM [inhibitor, single point] |
| COC(=O)C1=C(c2ccc(Cl)c(C(F)(F)F)c2)C[C@@H]2CC[C@H]1N2C(=O)NCCOc1ccccc1 | inconclusive: 12.6 µM [inhibitor, single point] |
| Cc1ccc(-n2ncc3c(=O)n(CC(=O)NCc4ccco4)cnc32)cc1C | inconclusive: 10 µM [inhibitor, partial curve, poor fit] |
| COc1cc2c(c(OC)c1OC)-c1ccc(O)c(=O)cc1[C@@H](NC(C)=O)CC2 | active: 8.91 µM |
| CN1CCN(c2ccc(CNS(=O)(=O)Cc3cccc(C(F)(F)F)c3)cc2)CC1 | inconclusive: 4.47 µM [inhibitor, partial curve, poor fit] |
| C=CCN=C(SCC(=O)c1ccc(Cl)cc1)c1c(O)n(C)c(=O)n(C)c1=O | inconclusive: 10 µM [inhibitor, single point] |
| Cc1ccccc1NC(=O)CCl | inconclusive: 12.6 µM [inhibitor, single point] |
| COC(=O)c1cccc(NC(=O)Nc2ccc(Cl)c(Cl)c2)c1 | inconclusive: 11.2 µM [inhibitor, single point] |
| Cc1onc(-c2ccccc2)c1C(=O)Nc1sc2c(c1C#N)CCC(C)C2 (stereo not given) | inconclusive: 12.6 µM [inhibitor, partial curve, poor fit] |
| CC#CCOC(=O)c1c(C)nc2sc3c(c2c1N)CCC(O)C3 (stereo not given) | inconclusive: 2.82 µM [inhibitor, partial curve, poor fit] |
| N#CC(C#N)=Cc1ccc(C=C(C#N)C#N)cc1 | inactive |
| CN(C)C(=O)Oc1ccc(-c2cn3cc(Cl)ccc3n2)cc1 | inconclusive: 1 µM [inhibitor, full curve, poor fit] |
| Cc1cc(C)c2nc(NNC(=O)c3cc(-c4cccs4)nc4ccccc34)sc2c1 | inconclusive: 28.2 µM [inhibitor, single point] |
| COC(=O)c1cc(=O)n(Cc2ccco2)c(=Nc2ccc(F)c(Cl)c2)s1 | active: 10 µM |
| CN(C)C(=S)SSC(=S)N(C)C | inconclusive: 2.24 µM [inhibitor, single point] |
| O=C1C2CCCC1C(N1CCCC1)CC2 (stereo not given) | inactive |
| COC(=O)C1=C(c2cccc(OCc3ccccc3)c2)C[C@@H]2CC[C@H]1N2C(=O)NCCc1ccc(F)cc1 | inconclusive: 12.6 µM [inhibitor, single point] |

— PubChem BioAssay AID540303 (National Center for Advancing Translational Sciences (NCATS), 2011)
